In PubChem BioAssay AID328 (DTP/NCI, 2004):
The list does not hold the whole screen: it gathers tests that were run many times, whatever their T/C, doses with no T/C, and many T/C values between a quarter and a half above the control. Other doses and runs of a compound stand elsewhere. T/C: endpoint of the treated group in % of that of the vehicle group. Some doses have a count of surviving animals in place of a T/C: the source files T/C as zero there, which appears to mark a toxic dose or a test without result, not a measured value. Some survivor counts are full or nearly so, which does not show that the dose was tolerated: the source hardly ever lists a survival T/C far under the control, and the zero likely stands for such cases as well. Survivors were counted at the toxicity check, usually on the fifth day, unless a day is given; later deaths do not show. Schedule codes are those of the source, taken here to give the interval after Q, in days (D) or hours (H), and the number of doses after X. Where survival is the endpoint, this PubChem deposit counts one and a half times the control or more as active, and values a quarter to a half above the control carry no call in these data; other NCI protocols may use other cut-offs. Some doses were run more than once; their values stand side by side, smallest first. Some T/C values are followed by the survivors on the day toxicity was checked, most often the fifth; without a count, all were alive then.

Test system: BDF1 mice, P388 leukemia ip, median survival T/C
Assay: NCI In Vivo Anticancer Drug Screen. Data for tumor model P388 Leukemia (intraperitoneal) in B6D2F1 (BDF1) mice
Details: T/C endpoint: median survival time, higher T/C = longer survival
Procedure, shortened: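 Survival ratio, drug arm over vehicle arm, in mice with a transplanted tumour.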

[1] = dose: 50.0 mg/kg/injection, schedule: Q01DX009 (ip), vehicle: saline
[2] = dose: 100.0 mg/kg/injection, schedule: Q01DX009 (ip), vehicle: saline
[3] = dose: 200.0 mg/kg/injection, schedule: Q01DX009 (ip), vehicle: saline
[4] = dose: 200.0 mg/kg/injection, schedule: Q04DX003 (ip), vehicle: saline sonified
[5] = dose: 400.0 mg/kg/injection, schedule: Q04DX003 (ip), vehicle: saline sonified
[6] = dose: 25.0 mg/kg/injection, schedule: Q01DX009 (ip), vehicle: saline
[7] = dose: 200.0 mg/kg/injection, schedule: Q01DX009 (ip), vehicle: saline with Tween-80

CC(=O)n1cc(F)c(=O)[nH]c1=O
T/C (dose: 0.85 mg/kg/injection, schedule: Q01DX009 (ip), vehicle: saline): 137 % of control | T/C (dose: 1.3 mg/kg/injection, schedule: Q01DX009 (ip), vehicle: saline): 125 % of control | T/C (dose: 3.12 mg/kg/injection, schedule: Q01DX009 (ip), vehicle: saline with Tween-80): 130 % of control | T/C (dose: 4.8 mg/kg/injection, schedule: Q01DX009 (ip), vehicle: saline with Tween-80): 145 % of control | T/C (dose: 15.0 mg/kg/injection, schedule: Q04DX003 (ip), vehicle: saline): 127 % of control | survivor count (dose: 25.0 mg/kg/injection, schedule: Q01DX010 (ip), vehicle: saline with Tween-80): 5 of 6 | T/C (dose: 25.0 mg/kg/injection, schedule: Q04DX003 (ip), vehicle: saline with Tween-80): 133 and 135 % of control | T/C (dose: 30.0 mg/kg/injection, schedule: Q04DX003 (ip), vehicle: saline): 145 % of control | T/C (dose: 45.0 mg/kg/injection, schedule: Q04DX003 (ip), vehicle: other): 129 % of control | survivor count (dose: 50.0 mg/kg/injection, schedule: Q01DX010 (ip), vehicle: saline with Tween-80): 6 of 6 | T/C (dose: 50.0 mg/kg/injection, schedule: Q04DX003 (ip), vehicle: saline with Tween-80): 147 % of control | T/C (dose: 65.0 mg/kg/injection, schedule: Q04DX003 (ip), vehicle: other): 133 % of control | survivor count (dose: 75.0 mg/kg/injection, schedule: Q01DX009 (ip), vehicle: saline): 6 of 6 | survivor count (dose: 100.0 mg/kg/injection, schedule: Q01DX010 (ip), vehicle: saline with Tween-80): 6 of 6 | T/C (dose: 100.0 mg/kg/injection, schedule: Q04DX003 (ip), vehicle: saline with Tween-80): 133 [5 of 6 alive] and 145 % of control | survivor count (dose: 115.0 mg/kg/injection, schedule: Q01DX009 (ip), vehicle: saline): 6 of 6 | survivor count (dose: 170.0 mg/kg/injection, schedule: Q01DX009 (ip), vehicle: saline): 6 of 6 | survivor count (dose: 200.0 mg/kg/injection, schedule: Q01DX010 (ip), vehicle: saline with Tween-80): 6 of 6 | survivor count (dose: 200.0 mg/kg/injection, schedule: Q04DX003 (ip), vehicle: saline with Tween-80): 6 of 6

CCCCCCCC(=O)N/N=C(\CO)[C@]1(O)Cc2c(O)c3c(c(O)c2[C@@H](OC2CC(N)C(O)C(C)O2)C1)C(=O)c1c(OC)cccc1C3=O (some centres not stated)
T/C (dose: 1.56 mg/kg/injection, schedule: Q01DX009 (ip), vehicle: water): 125 % of control | T/C (dose: 25.0 mg/kg/injection, schedule: Q01DX009 (ip), vehicle: water): 139 % of control [5 of 6 alive] | survivor count (dose: 50.0 mg/kg/injection, schedule: Q01DX009 (ip), vehicle: water): 6 of 6

CC(=O)[C@H]1CC[C@H]2[C@@H]3CC[C@@H]4C[C@@H](O)CC[C@]4(C)[C@H]3CC[C@]12C
survivor count (dose: 650.0 mg/kg/injection, schedule: Q01DX009 (ip), vehicle: saline with Tween-80): 2 of 3

CC1OCC(Br)([N+](=O)[O-])CO1 (configuration not stated)
survivor count (dose: 50.0 mg/kg/injection, schedule: Q04DX003 (ip), vehicle: saline): 3 of 6 | survivor count (dose: 100.0 mg/kg/injection, schedule: Q04DX003 (ip), vehicle: saline): 0 of 6

COc1cc(NCCCCCCNC(C)C)c2nccc(C)c2c1
survivor count [1]: 0 of 6 | survivor count [2]: 0 of 6 | survivor count [3]: 0 of 6

C=C1C(=O)OC2/C=C(\C)CC(O)/C=C(/C)CC(OC(=O)C3(C)OC3C)C12 (configuration not stated)
survivor count (dose: 400.0 mg/kg/injection, schedule: Q04DX002 (ip), vehicle: Klucel (hydroxypropylcellulose) (HPC)): 4 of 6

COc1cc(N/C(N)=N\C(N)=NC(C)C)cc(OC)c1OC
survivor count [4]: 5 of 6 | survivor count [5]: 0 of 6

O=C(O)CCSSCCC(=O)O
T/C (dose: 50.0 mg/kg/injection, schedule: Q04DX003 (ip), vehicle: Klucel (hydroxypropylcellulose) (HPC)): 125 % of control

CCC(CO)NC(=O)/C=C/c1cc(OC)ccc1OC (configuration not stated)
survivor count (dose: 800.0 mg/kg/injection, schedule: Q01DX009 (ip), vehicle: saline with Tween-80): 6 of 6

O=C(Nc1ccc(Cl)cc1)P(=O)(O)c1ccccc1
survivor count [6]: 6 of 6 | survivor count [3]: 6 of 6 | survivor count (dose: 400.0 mg/kg/injection, schedule: Q01DX009 (ip), vehicle: saline): 4 of 6

CSc1ccc(NC(=O)NNP(=S)(Oc2ccc(C(C)(C)C)cc2)Oc2ccc(C(C)(C)C)cc2)cc1
survivor count (dose: 200.0 mg/kg/injection, schedule: Q01DX005 (ip), vehicle: saline with Tween-80): 5 of 5

CC(C)C1(C(=O)NNC(=O)CCCc2ccc(N(CCCl)CCCl)cc2)OC2(O)CCCCCN2C1=O (configuration not stated)
survivor count (dose: 200.0 mg/kg/injection, schedule: Q04DX003 (ip), vehicle: other): 5 of 6 | survivor count (dose: 400.0 mg/kg/injection, schedule: Q04DX003 (ip), vehicle: other): 1 of 6

CCCNC(=S)NNC(=O)c1ccncc1
survivor count (dose: 50.0 mg/kg/injection, schedule: Q01DX009 (ip), vehicle: saline with Tween-80): 6 of 6 | survivor count [7]: 0 of 6

CCc1cc2c(cc1C(=O)/C=C\C(=O)O)C(C)(C)CCC2(C)C
survivor count (dose: 20.0 mg/kg/injection, schedule: Q01DX009 (ip), vehicle: Klucel (hydroxypropylcellulose) (HPC)): 0 of 6

CO[C@@H]([CH2][Hg][S]C#N)[C@@H]([CH2][Hg][S]C#N)OC
survivor count (dose: 50.0 mg/kg/injection, schedule: Q01DX009 (ip), vehicle: other): 1 of 6 | survivor count (dose: 100.0 mg/kg/injection, schedule: Q01DX009 (ip), vehicle: other): 0 of 6 | survivor count (dose: 100.0 mg/kg/injection, schedule: Q04DX003 (ip), vehicle: other): 0 of 6 | survivor count [4]: 0 of 6 | survivor count [5]: 0 of 6

COc1cc2ccnc(Cc3ccccc3)c2cc1OC
survivor count (dose: 400.0 mg/kg/injection, schedule: Q01DX009 (ip), vehicle: saline with Tween-80): 0 of 6

CC(O)c1nc(N)nc(N)c1-c1ccc(Cl)cc1 (configuration not stated)
survivor count (dose: 400.0 mg/kg/injection, schedule: Q01DX001 (ip), vehicle: saline with Tween-80): 3 of 6

CCCCCCCCCCOP(N)(=O)OCCCCCCCCCC
survivor count [7]: 6 of 6 | survivor count (dose: 400.0 mg/kg/injection, schedule: Q04DX003 (ip), vehicle: saline with Tween-80): 2 of 6

CNc1c(F)c(C#N)c(F)c(F)c1C#N
survivor count (dose: 100.0 mg/kg/injection, schedule: Q01DX009 (ip), vehicle: saline with Tween-80): 1 of 6 | survivor count [7]: 0 of 6

COc1cccc2c1C(=O)c1c(O)c3c(c(O)c1C2=O)C[C@@](O)(C(=O)CO)C[C@@H]3OC1CC(NC(=S)Nc2ccc3ccccc3c2)C(O)C(C)O1 (some centres not stated)
T/C (dose: 6.25 mg/kg/injection, schedule: Q01DX009 (ip), vehicle: saline): 137 % of control | T/C [6]: 141 % of control | T/C [1]: 134 % of control | T/C [2]: 131 % of control

CCC[CH2][Sn]1([CH2]CCC)[S]CC[N]1S(=O)(=O)c1ccc(C)cc1
T/C (dose: 1.5 mg/kg/injection, schedule: Q01DX009 (ip), vehicle: gum acacia): 141 % of control | survivor count (dose: 6.0 mg/kg/injection, schedule: Q01DX009 (ip), vehicle: gum acacia): 6 of 6 | survivor count (dose: 12.5 mg/kg/injection, schedule: Q01DX009 (ip), vehicle: gum acacia): 0 of 6 | survivor count (dose: 25.0 mg/kg/injection, schedule: Q01DX009 (ip), vehicle: gum acacia): 0 of 6 | survivor count (dose: 50.0 mg/kg/injection, schedule: Q01DX009 (ip), vehicle: gum acacia): 0 of 6
